PubChem BioAssay AID743121, NCATS, 2013
Assay: 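Genes whose silencing strengthens cell killing by camptothecin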 (primary screen). Cell system: MDA-MB-231 cells, a human breast cancer line. Knock-down reagent: single siRNA against human genes, 20 nM siRNA (0.8 pmol per well). Duration: 120 h (drug added 48 h after transfection, read 72 h later). Treatment: camptothecin 20 nM (about EC30) for 72 h; vehicle 0.1% DMSO in parallel plates. Detection: 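Cell viability by ATP luminescence (CellTiter-Glo) as % of non-targeting siRNA wells, and the log2 ratio of viability without drug over viability with camptothecin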. Direction: log2 vehicle/camptothecin viability: higher = stronger sensitisation to camptothecin; viability with camptothecin: higher = more viable cells. Units: viability with camptothecin in % of control. Rule for the call: 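Each gene scored by redundant siRNA activity (RSA) over its individual siRNA ratios; a gene is called active at p < 0.001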.
Shown is one part, drawn at random, of about 26,000 deposited reagents. 167 of them (0.63%) count as active. 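Calls are per gene from RSA p-values that are not deposited; an individual active-marked siRNA can sensitise only weakly.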 Reagents against one gene are numbered here. Not all columns of the deposit are shown.

{"Target gene":"ATP7A","siRNA no.":1,"log2 vehicle/camptothecin viability":0.367,"viability with camptothecin":70.3,"Outcome":"inactive"}
{"Target gene":"ATP7A","siRNA no.":2,"log2 vehicle/camptothecin viability":0.355,"viability with camptothecin":59.7,"Outcome":"inactive"}
{"Target gene":"ATP7A","siRNA no.":3,"log2 vehicle/camptothecin viability":-0.191,"viability with camptothecin":34.4,"Outcome":"inactive"}
{"Target gene":"ATP7A","siRNA no.":4,"log2 vehicle/camptothecin viability":-0.015,"viability with camptothecin":81.4,"Outcome":"inactive"}
{"Target gene":"VIP","siRNA no.":1,"log2 vehicle/camptothecin viability":-0.112,"viability with camptothecin":46.1,"Outcome":"inactive"}
{"Target gene":"VIP","siRNA no.":2,"log2 vehicle/camptothecin viability":0.264,"viability with camptothecin":84.3,"Outcome":"inactive"}
{"Target gene":"VIP","siRNA no.":3,"log2 vehicle/camptothecin viability":-0.00542,"viability with camptothecin":98.8,"Outcome":"inactive"}
{"Target gene":"VIP","siRNA no.":4,"log2 vehicle/camptothecin viability":0.303,"viability with camptothecin":56.7,"Outcome":"inactive"}
{"Target gene":"PTBP3","siRNA no.":1,"log2 vehicle/camptothecin viability":-0.00819,"viability with camptothecin":64.5,"Outcome":"inactive"}
{"Target gene":"PTBP3","siRNA no.":2,"log2 vehicle/camptothecin viability":-0.232,"viability with camptothecin":105,"Outcome":"inactive"}
{"Target gene":"PTBP3","siRNA no.":3,"log2 vehicle/camptothecin viability":-0.0165,"viability with camptothecin":89.5,"Outcome":"inactive"}
{"Target gene":"PTBP3","siRNA no.":4,"log2 vehicle/camptothecin viability":-0.136,"viability with camptothecin":99.4,"Outcome":"inactive"}
{"Target gene":"MCHR2","siRNA no.":1,"log2 vehicle/camptothecin viability":-0.356,"viability with camptothecin":96.8,"Outcome":"inactive"}
{"Target gene":"MCHR2","siRNA no.":2,"log2 vehicle/camptothecin viability":-0.293,"viability with camptothecin":72.7,"Outcome":"inactive"}
{"Target gene":"MCHR2","siRNA no.":3,"log2 vehicle/camptothecin viability":-0.052,"viability with camptothecin":109,"Outcome":"inactive"}
{"Target gene":"MCHR2","siRNA no.":4,"log2 vehicle/camptothecin viability":0.044,"viability with camptothecin":76.1,"Outcome":"inactive"}
{"Target gene":"XRCC4","siRNA no.":1,"log2 vehicle/camptothecin viability":0.243,"viability with camptothecin":101,"Outcome":"inactive"}
{"Target gene":"XRCC4","siRNA no.":2,"log2 vehicle/camptothecin viability":-0.375,"viability with camptothecin":86.7,"Outcome":"inactive"}
{"Target gene":"XRCC4","siRNA no.":3,"log2 vehicle/camptothecin viability":-0.217,"viability with camptothecin":105,"Outcome":"inactive"}
{"Target gene":"MED8","siRNA no.":1,"log2 vehicle/camptothecin viability":-0.0726,"viability with camptothecin":55.1,"Outcome":"inactive"}
{"Target gene":"MED8","siRNA no.":2,"log2 vehicle/camptothecin viability":-0.228,"viability with camptothecin":96.2,"Outcome":"inactive"}
{"Target gene":"MED8","siRNA no.":3,"log2 vehicle/camptothecin viability":-0.24,"viability with camptothecin":89.3,"Outcome":"inactive"}
{"Target gene":"MED8","siRNA no.":4,"log2 vehicle/camptothecin viability":-0.223,"viability with camptothecin":21.3,"Outcome":"inactive"}

Records listed so far whose target name begins with P or p (4):
{"Target gene":"PTBP3","siRNA no.":1,"log2 vehicle/camptothecin viability":-0.00819,"viability with camptothecin":64.5,"Outcome":"inactive"}
{"Target gene":"PTBP3","siRNA no.":2,"log2 vehicle/camptothecin viability":-0.232,"viability with camptothecin":105,"Outcome":"inactive"}
{"Target gene":"PTBP3","siRNA no.":3,"log2 vehicle/camptothecin viability":-0.0165,"viability with camptothecin":89.5,"Outcome":"inactive"}
{"Target gene":"PTBP3","siRNA no.":4,"log2 vehicle/camptothecin viability":-0.136,"viability with camptothecin":99.4,"Outcome":"inactive"}

The listing continues.
{"Target gene":"NSUN6","siRNA no.":1,"log2 vehicle/camptothecin viability":-0.103,"viability with camptothecin":64.2,"Outcome":"inactive"}
{"Target gene":"NSUN6","siRNA no.":2,"log2 vehicle/camptothecin viability":0.0569,"viability with camptothecin":84.3,"Outcome":"inactive"}
{"Target gene":"NSUN6","siRNA no.":3,"log2 vehicle/camptothecin viability":0.0539,"viability with camptothecin":44.2,"Outcome":"inactive"}
{"Target gene":"NSUN6","siRNA no.":4,"log2 vehicle/camptothecin viability":0.114,"viability with camptothecin":37.1,"Outcome":"inactive"}
{"Target gene":"SREBF1","siRNA no.":1,"log2 vehicle/camptothecin viability":-0.447,"viability with camptothecin":112,"Outcome":"inactive"}
{"Target gene":"SREBF1","siRNA no.":2,"log2 vehicle/camptothecin viability":0.459,"viability with camptothecin":50.7,"Outcome":"inactive"}
{"Target gene":"SREBF1","siRNA no.":3,"log2 vehicle/camptothecin viability":-0.505,"viability with camptothecin":66.8,"Outcome":"inactive"}
{"Target gene":"SREBF1","siRNA no.":4,"log2 vehicle/camptothecin viability":0.281,"viability with camptothecin":40,"Outcome":"inactive"}
{"Target gene":"TWF1","siRNA no.":1,"log2 vehicle/camptothecin viability":-0.931,"viability with camptothecin":104,"Outcome":"active"}
{"Target gene":"TWF1","siRNA no.":2,"log2 vehicle/camptothecin viability":1.1,"viability with camptothecin":43.2,"Outcome":"active"}
{"Target gene":"TWF1","siRNA no.":3,"log2 vehicle/camptothecin viability":1.76,"viability with camptothecin":6.84,"Outcome":"active"}
{"Target gene":"TWF1","siRNA no.":4,"log2 vehicle/camptothecin viability":-0.0695,"viability with camptothecin":110,"Outcome":"active"}
{"Target gene":"SPOUT1","siRNA no.":1,"log2 vehicle/camptothecin viability":-0.233,"viability with camptothecin":90.6,"Outcome":"inactive"}
{"Target gene":"SPOUT1","siRNA no.":2,"log2 vehicle/camptothecin viability":-0.266,"viability with camptothecin":68,"Outcome":"inactive"}
{"Target gene":"SPOUT1","siRNA no.":3,"log2 vehicle/camptothecin viability":-0.29,"viability with camptothecin":58.5,"Outcome":"inactive"}
{"Target gene":"SPOUT1","siRNA no.":4,"log2 vehicle/camptothecin viability":-0.181,"viability with camptothecin":92.2,"Outcome":"inactive"}
{"Target gene":"TRAPPC4","siRNA no.":1,"log2 vehicle/camptothecin viability":-0.294,"viability with camptothecin":67.6,"Outcome":"inactive"}
{"Target gene":"TRAPPC4","siRNA no.":2,"log2 vehicle/camptothecin viability":0.204,"viability with camptothecin":87.3,"Outcome":"inactive"}
{"Target gene":"TRAPPC4","siRNA no.":3,"log2 vehicle/camptothecin viability":-0.239,"viability with camptothecin":76.7,"Outcome":"inactive"}
{"Target gene":"TRAPPC4","siRNA no.":4,"log2 vehicle/camptothecin viability":-0.303,"viability with camptothecin":28.7,"Outcome":"inactive"}
{"Target gene":"CIB3","siRNA no.":1,"log2 vehicle/camptothecin viability":-0.554,"viability with camptothecin":7.6,"Outcome":"inactive"}
{"Target gene":"CIB3","siRNA no.":2,"log2 vehicle/camptothecin viability":0.133,"viability with camptothecin":58.5,"Outcome":"inactive"}
{"Target gene":"CIB3","siRNA no.":3,"log2 vehicle/camptothecin viability":-0.2,"viability with camptothecin":67.3,"Outcome":"inactive"}
{"Target gene":"CIB3","siRNA no.":4,"log2 vehicle/camptothecin viability":-0.19,"viability with camptothecin":62.8,"Outcome":"inactive"}
